Results deposited as PubChem BioAssay AID1259254 (NCATS, 2017).

Screen: 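Gene knock-downs that lead to re-replication, shown by excess G2 DNA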 (primary screen)
System: human HCT116 colorectal cancer cells
Knock-down reagent: single siRNA against human genes
Time to read-out: 3 days
Detection: 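Nuclei stained with Hoechst and imaged; cell-cycle phase assigned by DNA content; G2 share scaled per plate, non-targeting siRNA 0%, GMNN siRNA 100%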
Reading the numbers: G2 robust z-score: higher = more G2 cells, more excess DNA replication
Call rule: 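Active siRNAs have a G2 robust z of 5 or more median absolute deviations over the median, which in these data means about 38% or higher of GMNN control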
In all, the deposit lists about 59,000 reagents; shown is a part drawn at random. Of all reagents, about 1,550 (2.6%) got an active call. 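G2 share is only a proxy for re-replication; each gene was hit by three separate siRNAs, and active genes were retested.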 Unmarked entries are inactive. Reagents against one gene are numbered here. Not all columns of the deposit are shown. The record does not give: the amount of reagent.

What is on record for B3GAT2 (beta-1,3-glucuronyltransferase 2) #1?
G2 robust z-score: 1.48

Which result is listed for B3GAT2 (beta-1,3-glucuronyltransferase 2) #2?
G2 robust z-score: -0.444

What did the screen give for B3GAT2 (beta-1,3-glucuronyltransferase 2) #3?
G2 robust z-score: -0.548

What did the screen give for OR10J3 #1?
G2 robust z-score: 1.38

How did the screen score OR10J3 #2?
G2 robust z-score: -1.07

What is on record for OR10J3 #3?
G2 robust z-score: 1.83

Which result is listed for CLEC6A (C-type lectin domain containing 6A) #1?
G2 robust z-score: 0.00604

For CLEC6A (C-type lectin domain containing 6A) #2, what was measured?
G2 robust z-score: 2.04

For CLEC6A (C-type lectin domain containing 6A) #3, what was measured?
G2 robust z-score: 0.471

For HOXA4 (homeobox A4) #1, how do the results read?
G2 robust z-score: 5.03 (active)

For HOXA4 (homeobox A4) #2, how do the results read?
G2 robust z-score: -0.795

With HOXA4 (homeobox A4) #3, how do the results read?
G2 robust z-score: 2.72

Which result is listed for FYB2 (FYN binding protein 2) #1?
G2 robust z-score: 0.665

What is on record for FYB2 (FYN binding protein 2) #2?
G2 robust z-score: -0.292

What is on record for FYB2 (FYN binding protein 2) #3?
G2 robust z-score: 5.89 (active)

With SYDE1 (synapse defective Rho GTPase activating protein 1) #1, how do the results read?
G2 robust z-score: 0.559

How did the screen score SYDE1 (synapse defective Rho GTPase activating protein 1) #2?
G2 robust z-score: 1.2

For SYDE1 (synapse defective Rho GTPase activating protein 1) #3, what was measured?
G2 robust z-score: -0.286

For MPP7 (MAGUK p55 scaffold protein 7) #1, what does the deposit list?
G2 robust z-score: -0.156

What did the screen give for MPP7 (MAGUK p55 scaffold protein 7) #2?
G2 robust z-score: -1.06

For MPP7 (MAGUK p55 scaffold protein 7) #3, what does the deposit list?
G2 robust z-score: 1.14

For JKAMP (JNK1/MAPK8 associated membrane protein) #1, what was measured?
G2 robust z-score: -0.86

With JKAMP (JNK1/MAPK8 associated membrane protein) #2, what was measured?
G2 robust z-score: 0.685

For JKAMP (JNK1/MAPK8 associated membrane protein) #3, what was measured?
G2 robust z-score: 1.66

For ZC3H11B (zinc finger CCCH-type containing 11B) #1, what was measured?
G2 robust z-score: -0.134

For ZC3H11B (zinc finger CCCH-type containing 11B) #2, what was measured?
G2 robust z-score: -0.105

Which result is listed for ZC3H11B (zinc finger CCCH-type containing 11B) #3?
G2 robust z-score: -1.14

With PTMS (parathymosin) #1, how do the results read?
G2 robust z-score: -0.472

For PTMS (parathymosin) #2, how do the results read?
G2 robust z-score: -0.0849

With PTMS (parathymosin) #3, what was measured?
G2 robust z-score: 2.53

In a second layout: 4 of the entries above.
gene	reagent no.	G2 robust z-score
ZC3H11B (zinc finger CCCH-type containing 11B)	2	-0.105
ZC3H11B (zinc finger CCCH-type containing 11B)	3	-1.14
PTMS (parathymosin)	1	-0.472
PTMS (parathymosin)	2	-0.0849
